The text below walks through data of PubChem BioAssay AID1347423 (Functional Genomics Laboratory (NCATS/FGL), 2020).

Screen size: about 52,000 sequences; about 210 (0.4%) were called active.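 The calls were made as follows: active = gene whose silencing raises cell survival under the drug, median off-target-corrected z-score across its silencing RNAs 2 or more; inactive = the rest.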 Some of the results follow.

A short description of this assay: Resistance to Poly (ADP-Ribose) Polymerase inhibitor: Gene Identification via Genome-wide siRNA Screen. The note with it: mouse BRCA2 R2336H ES cells, olaparib, CellTiter-Glo viability; stronger effect = higher value. The gist of the method: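 Genome-wide siRNA screen (3 siRNAs/gene, 20 nM) in mouse ES cells carrying hypomorphic BRCA2 R2336H; olaparib 500 nM added 48 h post-transfection, CellTiter-Glo viability 72 h later. Normalized to plate-median negative control; MAD z-scores, gene median, seed-adjusted.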
(In general: ATP-based viability assays read luminescence as a measure of living cells.)
As to GUUGCUCAAAGUGUCCAAGTT against Rpl36, the z-score is inactive: -2.34.

For the sequence AACCAUGAUGCUUACGUUUTT against S100a10, the z-score is inactive: 0.819.

In the case of GGUUGUUUGCUUACGAUGUTT against BC055368, the z-score is inactive: 0.59.

With GGAGCUGUUCAGACCCAUUTT against E2f7, the z-score was inactive: 2.84.

As to GCUUGCAUGUACAGACAUUTT against Olfr517, the z-score is inactive: 1.3.

Turning to CCGCAUCCAGGUUACUACATT against Adcy5, the z-score was inactive: 0.156.

Regarding “CUCUAGUGUUACACUUAUUTT against 1110002N22Rik”, the z-score was inactive: 0.345.

Take GGUAGAGAUCAUCAAUGCATT against Ggtla1: the z-score was inactive: 0.0179.

For the sequence “GCUUUAAGAAAGAUUGACCTT against 5830433M19Rik”, the z-score was inactive: 0.481.

Consider GCUUGUACGAUGUUACCCATT against Fbxo32, for which the z-score is inactive: 0.939.

With “GGAUCCACCAGUUAAGAAATT against 4932408F19Rik”, the z-score is inactive: -0.91.

As for GCCAAAUUAGCAGCUUGUGTT against Rln3, the z-score was inactive: 0.339.

Turning to GGGCAUUCUACUUCAGAGATT against Orc2l, the z-score was inactive: -1.22.

GGAGCUGUGGAAGAAGUUCTT against Tbx4: the z-score was inactive: 0.382.

Consider “GGGAGAAUAUCAUGACCAATT against E330018D03Rik”, for which the z-score was inactive: 0.658.

For “GCAGGUAAGUUAAAUGAUGTT against 5830402J09”, the z-score is inactive: -0.281.

Consider CCCGUGCUUCAAAUAGAGATT against Prkcdbp, for which the z-score was inactive: 1.53.

GGACCAGAAACUGUAUGCATT against Wrn: the z-score is inactive: 1.04.

On to GGACAGAUUACAUCACUUCTT against Sip1, for which the z-score is inactive: -0.135.

GGAGCAUUAGUCAUUGUUATT against Hsd17b4: the z-score is inactive: -0.163.

Turning to GGGAGAUUUGUUCUAGUUUTT against E2f2, the z-score is inactive: 0.0911.

On to “GGAUAAACCCUACGUUCUATT against 2210409B01Rik”, for which the z-score is inactive: -0.22.

For the sequence “GGUGAAAAACCAUUUUGUUTT against 8030466O12Rik”, the z-score was inactive: 0.911.

With GGAAAGUGGAAGACAUUUUTT against Olfr1324, the z-score is inactive: -0.0518.

As to GGUCAUAAGCUAUUCCUGUTT against V1rd12, the z-score is inactive: 1.51.

For GGACAAGAGGCUUUCAUAUTT against Gabrb1, the z-score is inactive: 0.983.

On to “CCUGUUGAAGUUUCUGGAATT against 0610007H07Rik”, for which the z-score was inactive: -0.0812.

Take GGACAGAAAGAACUUGUCGTT against Sema5a: the z-score is inactive: -2.28.

Take GGUAAAAUUCCAGAGUUGUTT against Serpinb9: the z-score is inactive: -0.671.

CGCAGCAGUUGUGGUCAAUTT against Nnat: the z-score was inactive: 0.62.

With “GGUGGGAAAGGAAUUUGACTT against 2010001H14Rik”, the z-score was inactive: 0.314.

Take CCCGGUUGUCUGGAUAUGATT against Map3k3: the z-score was inactive: -0.363.

Regarding GGCUGUGAGAACGAUGCAATT against BC026682, the z-score is inactive: -1.78.

As to GGAAGAUGUUAAGAGUUACTT against Slc1a3, the z-score is inactive: 1.22.

For the sequence “GCAGUUUGGUGAAUCCAGCTT against 4933414E04Rik”, the z-score is inactive: -0.284.

Consider GGGUUGGUACCUAAGAAUGTT against E2f4, for which the z-score was inactive: -0.32.

CGCCAUUUACACUUCCUGCTT against Sval2: the z-score was inactive: 1.4.

For GGUGCCUUCCAAAAUUACGTT against Slc22a7, the z-score was inactive: 0.853.

As to GCUCAUUAUUAAACUUACCTT against Tfrc, the z-score is inactive: -0.254.

In the case of “GGAAAGGCUCAAUGAGAGCTT against 3830408P04Rik”, the z-score is inactive: 1.62.

For GGAGCUGAAGAUGAGUUUGTT against Abhd4, the z-score was inactive: 1.22.

Turning to GGCCUACUUUGAUGUUAAATT against Cdc23, the z-score was inactive: 0.479.

As to GGCCAUUUUAUUGUAUGUUTT against BC027088, the z-score is inactive: -0.486.

Take GCACGUCCAUUCUGCUUUCTT against BC017612: the z-score was inactive: -0.0127.

Take GGCCCAAUGCUGUAAAUAUTT against Hoxb5: the z-score was inactive: -0.122.

As to GGUAACUCAAUUUUGUGUUTT against Gcet2, the z-score was inactive: -0.189.

GCAGAUCAAUGGAUUCACCTT against Olfr57: the z-score was inactive: 1.39.

For the sequence GGUCAGCCUAAGAAUGUACTT against Isp1, the z-score is inactive: -2.89.

With CCAAAAUCGAUAAUUCCCUTT against Acvr1, the z-score is inactive: 0.486.

Regarding GGAGGAAUGGAUGAACAAATT against Flcn, the z-score is inactive: -2.

As to “GGACAAUGGGAACAUGUAATT against 1700022N24Rik”, the z-score is inactive: -0.178.

For GCCAUUCAUGGAGAAGGAUTT against BC020188, the z-score is inactive: -1.95.

Take CGGGAAGAGUACUUGUUUUTT against Cfl1: the z-score was inactive: 0.0373.

GGUGUUUCAGGUAUUGAAUTT against Ttk: the z-score is inactive: -0.252.

As for GCCUUUUAGCUGUUCAGGATT against AI451557, the z-score is inactive: -1.18.

With GCACAAGCUGAAGAAGUCATT against S100b, the z-score is inactive: 2.05.

Take GAAAAGCCUAUGUAACUUCTT against Iltifb: the z-score is inactive: 1.25.

On to GCAACUCGACUGGUACUCUTT against Peg10, for which the z-score was inactive: 1.33.

CGUGUAUCUAGUCAUACGGTT against Tap2: the z-score was inactive: 0.495.

Regarding “GGAAGAGACAAAGAGUACATT against 4933402J07”, the z-score is inactive: 0.0796.

For “GGCAAUAGAAUCAAGAUUUTT against C130021I20”, the z-score is inactive: 0.151.

As for CCAGUGAAGGUUUACUACUTT against Mrpl1, the z-score was inactive: -0.407.

For GCUAAAUGAGAACAACUCGTT against Trappc2, the z-score was inactive: 0.0288.

Take CCUUUGCUCCACCUACACATT against Gm1053: the z-score was inactive: -0.514.

As to GCUGGGUGAUAAACAAUGUTT against Rhbg, the z-score is inactive: -0.0089.

Consider GGCUGUGCUCUCACUCUAUTT against Actg2, for which the z-score was inactive: -1.27.

As for GGAUACCAUCAUUGAUGUCTT against Dmap1, the z-score is inactive: -2.31.

Consider GGCAACAGUAUUUAUGAAUTT against Sim2, for which the z-score was inactive: 0.513.

Take CCUGAGGUGUUUUACAUAUTT against Usp49: the z-score is inactive: -0.515.

In the case of GCCUUAAUUAAACACGGCCTT against AL033326, the z-score is inactive: 0.408.

On to GGAAUACGGAUUGAUGGAGTT against Fli1, for which the z-score is inactive: 4.01.

On to CCCACCACGAAAACUUAUGTT against Hnrph1, for which the z-score is inactive: 0.823.

Regarding GGAAAAAGAGGCCAAAAAGTT against Rbbp1, the z-score is inactive: -0.183.

Take GGUAAAUGAUCUGAAAAUGTT against Rps6ka6: the z-score was inactive: 0.591.

Regarding GCCGGAAGGCCAUUUAUAATT against Acadsb, the z-score is inactive: 0.00112.

For the sequence GGCGGUAUUUUGCUGAUUUTT against Ccnj, the z-score was inactive: -0.651.

Take “GGCCAGAUAUUAUAAGAAATT against E330008O22Rik”: the z-score was inactive: 0.0447.

Turning to GCUAGGAAUGAUGUGAGGCTT against Ppp5c, the z-score is inactive: 1.82.

Consider GGUGCCAGAUGUCAAGAAATT against Rpn2, for which the z-score is inactive: 1.07.

In the case of CCAGAUGAACGGGACAAACTT against Cited2, the z-score is inactive: -0.473.

On to GGGCAAAAUGUGGAGAUGUTT against BC027127, for which the z-score is inactive: -0.455.

Take GGCAUUUCAGGUUCAUGGATT against Zfp101: the z-score was inactive: -0.36.

Regarding CCCUGACACUAAUUUUCCUTT against Nagpa, the z-score is inactive: -0.0793.

Consider GCCGACAGAUCGUCUUGAUTT against Tmc4, for which the z-score was inactive: -2.07.

Turning to CGUUUAUGAAGUGAAAGAUTT against Mrpl37, the z-score was inactive: -0.438.

With “GGAGCUGAAUGUCUGUAGCTT against 2410018G20Rik”, the z-score was inactive: 1.04.

Take “GGUUUGAAUGUCACCGGCATT against 0610030I09Rik”: the z-score was inactive: -0.136.

As to GGAAGAAGAAGACCAGGGATT against Parvb, the z-score was inactive: -2.74.

With GCAGUAGCUGAAUUUUUUATT against Cnot10, the z-score was inactive: -0.394.

For GGUUCCAGCUAAUAGCCUGTT against Plekhj1, the z-score was inactive: -0.146.

For “GGGUUUGAGGACUUGAUGATT against 2610019A05Rik”, the z-score was inactive: 1.5.

On to “GGCUCAGCUAAGAAAUACGTT against 1500001L15Rik”, for which the z-score is inactive: -0.739.

For GCGAAUUCAUGUUUGAGGATT against Foxf2, the z-score was inactive: -1.13.

As for CGGAUAUGAAUUUUUUGCUTT against Ppp1cb, the z-score is inactive: 0.228.

Regarding CCUGAUCGUCAUCUAUACCTT against Irs3, the z-score is inactive: 1.05.

On to GAUUGUGCCUUAUCUCUAATT against V1rh11, for which the z-score is inactive: -1.16.

Regarding CCAAGCUAGUCCUCAAGCUTT against Snapc2, the z-score is inactive: 0.955.

With CUCUGAACGACCUAUACCUTT against Cebpd, the z-score is inactive: -1.79.

For CCACUUUUUGGAUAAUCUGTT against BC046331, the z-score is inactive: 1.23.

GGAGCCUGUCUUUUAUUGATT against Olfr938: the z-score is inactive: 0.534.

As for GGAUCCUUGUACAGAAAUGTT against Snx26, the z-score is inactive: 0.135.

On to GGGAUGCACUGAGUGAAGATT against Scg2, for which the z-score was inactive: -0.207.

For GGUCUAUGUGUGGAUGGAATT against Crb1, the z-score is inactive: -0.655.

On to “GGACACAAAUUUCGUGAUGTT against 4922502D21Rik”, for which the z-score is inactive: 1.2.
